Earlier results, collected in article PMC12705613 (Frontiers in Microbiology, 2025).

Settings: ref Zhou et al., 2023; cited from earlier work

In the case of `COC(=O)C1=C(C)NC(C)=C(C(=O)OC)C1c1ccccc1[N+](=O)[O-]` [nifedipine], the “Bioavailability in SHRs vs Wistar rats” value is given as “lower”.
